Source: patent publication US20240115488A1, “COMPOSITION FOR ORAL CAVITY CARE” (ICHIMARU PHARCOS CO., LTD., priority 2021, published 2024)

System: oral bacteria culture medium
Assay: Confirmation of halitosis suppression effect: measurement of VSC concentration with halimeter (Test Example 3)
Assay type: cell-based, human
Details: 0.05% CPC
Description: Using Vivaspin 20 (manufactured by Sartorius) of a fractionated molecular weight of 5 k, ML with 5000 or more was prepared.
Three fractions including ML with 5000 or more and less than 30000, ML with 30000 or more and less than 50000, and ML with 50000 or more were obtained.
A predetermined CPC solution was prepared as follows. 0.2 g of CPC was dissolved in 10 mL of ethanol solution to prepare a stock solution (2% CPC). This stock solution was diluted 20-fold with purified water to prepare a 0.1% CPC (5% ethanol) solution. This solution was further diluted with a 5% ethanol solution to prepare 0.05% CPC (5% ethanol), 0.025% CPC (5% ethanol), and 0.0125% CPC (5% ethanol).
Saliva (approximately 2 mL) of a healthy human in his 30 s was collected by a predetermined method. The collected saliva was centrifuged (2000×g, 10 minutes, 25° C. (room temperature)). After the centrifugation, the supernatant was collected. The supernatant was added to 30 mL of Todd Hewitt Broth (Becton, Dickinson and Company, 249240), and cultured at 37° C. for 16 hours. The turbidity (OD660 nm) of the culture medium after the culture was measured, and the culture medium was diluted with PBS to have a turbidity of 0.125. The diluted liquid (oral bacteria culture medium) was used in a test.
Halitosis is defined as “malodor that exceeds a socially acceptable limit among gases that come out of the mouth or the nose”. Most (80% or more) of the halitosis is considered to be from gas in the oral cavity, and main causative substances thereof are considered to be hydrogen sulfide (H2S), methyl mercaptan (CH3SH), and dimethyl sulfide [(CH3)2S], which are volatile sulfur compounds (VSCs) (Cause and fact of halitosis, e-healthnet, Ministry of Health, Labour and Welfare, URL: https://www.e-healthnet.mhlw.go.jp/information/teeth/h-07-001.html). […]
After the standing, the VSC concentration in each group was measured three times with a halimeter (RH17K, TAIYO), and an average value thereof was calculated. The average value of the results (numerical values) obtained was calculated.

In the case of CCCCCCCCCCCCCCCC[n+]1ccccc1 [CPC, cetylpyridinium chloride], the “VSC concentration, calculation result (relative value)” value (Test 3-1, 3-1 Control group = 100) is reported as 59.1, the “VSC concentration, calculation result (relative value)” value (Test 3-2, 3-2 Control group = 100) is reported as 59.1 and the “VSC concentration, calculation result (relative value)” value (Test 3-3, 3-3 Control group = 100) is reported as 91.
